Data as given in PubChem BioAssay AID1508600 (Functional Genomics Laboratory (NCATS/FGL), 2020).
Out of some 53,000 sequences screened, about 3,700 (7%) were called active.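 The calls were made as follows: active = gene knockdowns whose robust z-score for IL-1 alpha signal is at least 2 or at most -2, so actives lie on both sides; inactive = the rest.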 The list shows a part of the results.

assay: Components of the Cytosolic LPS Sensing Pathway: Gene Identification via Genome-wide siRNA Screen; conditions: RAW264.7 macrophages, IL-1a HTRF, actives lie on both sides, screened at 100 nM (by protocol), cells primed 5 h with Pam3CSK4 first;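 also: robust z of the log signal after scaling to non-targeting control siRNA wells of the plate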
Summary of the method: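 Knockdown: 100 nM siRNA, 48h, RAW264.7. Stimulation: Pam3CSK4 5 h, then LipidA via TransIT-TKO 24 h. Output: supernatant IL-1a HTRF, negative-control-normalized, log robust z-score; viability by CellTiter-Glo.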

z-score, inactive:
GGGAAAAUUCCAGAAUUGUTT against Serpinb9c -1.37, CCGGGAAUAUGACCAGUACTT against Cd3g 0.266, GGGAAACUGUAUUAAUCUCTT against Foxc1 0.103, GGUGCUUAAAACAGAAAGATT against Myo9a 0.572, CCUACAGAGGUGCCAUUGUTT against Naa60 -0.244, GGACCAUCUCUUUCAUUGCTT against Olfr1124 -1.66, GCUCAUAGGCCUCAUCGUUTT against Piwil1 -0.653, GGAUAUCAUAUUUUCUCAGTT against Fam71d 0.0644, GCAACCGAAAGAUAAAGCCTT against Ctu1 0.438, GGUCAUUGAUGGCUUUUUUTT against Mus81 -1.54, GGCACUUUGAUUGUACAAUTT against Dyrk4 0.726, GGAGCUUAGACAAAAAGCCTT against Spty2d1 -1.04, GGACAGAAAGAUUGUGAUCTT against Arhgap12 0.306, CGGUCAAGGACAGGAAGUGTT against Eif4b 0.518, GGAAUCCUCAUUCUGGAUGTT against Abcg8 0.462, GGCUCAAGGUCUUUUCAACTT against Olfr702 -0.458, CGUUGCACCUCUAUGGCAATT against Podnl1 -0.527, CCUGAAAAGCUAUUGGGUATT against Baat -0.196, GGUUACUAUGUGAAGAUUUTT against Abra 0.769, CCUUGAGAAGUUAAACCAUTT against Specc1 -1.06, GCCAAGGAGAUCACACUUATT against Chrnd -0.129, CCUCAAAAUGGCUAUGGACTT against 1520401A03Rik 0.587, GCUCAGAAACACCUUCUGGTT against 2310011J03Rik 0.866, AGCUCCAUCCUAAUGAGGUTT against Klk1b22 0.703, GCUAACUUGCUCAUGCAAATT against Txlnb -0.00758, GGAAUUGACUGUGUUAAGATT against Zfr -1.16, GGUGAAUUUACUCCUGAAATT against Asxl2 0.267, GGUGGAAAUGGGAGAAUUUTT against Sparc 0.59, GGUUCUGUCCGCUUUUUGGTT against Coasy 0.119, GUGUCUCUGGCUGUUCUGATT against Atp5o 1.14, CCAGUUACUAGUAAUACUCTT against Mcm3ap -0.0482, GCAUGGAUCCCUUUUCGAUTT against Tgfbr1 -0.35, CGCACGAGAAGACCUCUUUTT against Fam71b 1.4, GGGUUUGACUACAAGACUUTT against Mat2a 0.521, GGAGUGAGACAAGUGUAUGTT against Sprr1a -0.0345, GGGCUAUGGUUUUAUCGAATT against Puf60 0.0423, AGUGUAAGAGCCUGUUUAUTT against Xlr 0.474, GCAACGCAACAGCAUUCCUTT against Psmg1 1.34, GCUUACCAUGAAAAUAUUGTT against Kcnip1 -0.495, GCAAUGGGUUGUAAAUUUATT against Fndc3a -0.0948, GGACAUCCAUUCAAGGCCUTT against Rtn3 -0.941, GGACCACUACAUCAUAUACTT against Lcn4 -1.17, CCCUGGGUUCUGAUCUUAATT against Cd207 1.64, GGUUUACACUGACUAUGUGTT against Cdkl2 -0.78, GUUUAACUACAACAAUGAGTT against Dcpp1 1.23, GCCUUAUAGGGAGAUCUUUTT against Tsnaxip1 -1.48, GGUGAUGUGCCCAUGACAGTT against Ap1m2 0.455, GGAUUGCAAAUGGUUUAAUTT against Chchd2 1.19, GUUGAUCGUGCAGAUCAAGTT against Diras1 -0.338, GGGUUAUACCAAGUCCAUUTT against Mapk1 -0.959, GCCGUUAUCUGGACUUUACTT against Zpbp2 -1.98, GGAAGUUUACCAGUCUAUCTT against Pik3c2a 1.4, GGCUUCAUGAGUAGGAUUATT against Olfr943 -0.636, GGAACAGGAUACGUACGCUTT against Acat1 1.31, GGAUGAGUCUUUCUAGUUATT against Nipa1 -0.337, GGAACCCUGAACUUGAACGTT against Heg1 -1.46, CCUUCAAUGAAAUAAGCACTT against Olfr1155 0.137, GCAAUUACAGAUUAAGUCUTT against Zfp869 -0.757, GGUGCUCAUUUUAUUGAGATT against Agmo -0.875, GCCUAGCAGUGCCAGGAAATT against Epn2 -0.169, GCCACGACACGAUGACAUATT against Plcxd1 0.918, GUGCAUGCAGUGUUGUUUUTT against Magea5 0.711, GGGAUCAAUUUUGAAGAAUTT against Jmjd4 -0.398, GGUAAUUGCUGGCUUUAAUTT against Pfdn2 0.359, GGAGGAGAUGAUAAAGAUUTT against Glyr1 -0.987, CCGUUGUUUACCUUGUGGCTT against Zdhhc20 -1.36, GCGCAAGGAAGAUGCCCAUTT against Usp17lb 0.339, CCAAGAAGCAUGCAUGUAUTT against Resf1 -0.217, GGUCGUUAAAAAAGAUGUGTT against 2810004N23Rik -0.433, GGUAUUGGUGCAAUUGUCCTT against Olfr891 -0.839, CCUGGACCAAAAUUUUGUGTT against Cyp2j5 0.606, GGACUUGAAUGAUAAGUUCTT against Cyp1a1 0.23, GGACUUUGAGAACUUUUAUTT against Sptlc3 -1.55, GGACAUUAUCACUUUGGAATT against Casp2 -0.923, GGCUGGAAGCGUAAUUCACTT against Trim36 0.427, CCAAGAUUCAUAAGAAGGCTT against Tas2r131 0.646, GGAACUUCAGAGUAAACCUTT against H2-T23 0.096, CCAUCGACUGUUUCAUCCUTT against Olfr987 -0.915, CGCAAAGGAGGCUUUACUCTT against Foxred1 1.52, GCAGCACAGUACUAUCUCGTT against Ttc4 -0.339, GCUGGAGAUCUAAAAACAGTT against Mphosph10 1.54, GCAUCAAUUGUCAGGAAAUTT against Rev3l 0.807, GUUCAGACAGAAACCCAGUTT against Fxyd3 1.87, GCUUAUUCCCAGGAGACCATT against Dmrtc2 -0.764, GCCGAGAAUGAAGUUAGAATT against Mybl1 0.778, GCUCAGAGGUGUAUUCAUUTT against Igf2bp2 -0.3, GGACCUGGAUGUGUCCUAUTT against Lrfn4 0.0714, GGAACCAGAAGAAUCAUUGTT against Casp4 -1.43, CCAAGUACAAAUGGUGUGATT against Vdac2 -1.78, GGAAUAUCACCAAACCAAATT against 2310057J18Rik -1.08, CCAGGAAGUGUUGAUGUGCTT against Gal -1.75, GGAAAAAAUCAAGAGUGAATT against Fam50a -0.157, GCCAGGAACCCUUUUAAUCTT against Cyb5r2 -0.746, CGACAACACAGUUAUUAUUTT against Pld1 0.338, GCUCUAUGGAGACCUAAAGTT against Sdha -0.378, GGAACUCACCCUCAGCUUGTT against Tmem260 0.313, GCAGAUGAAUCCAUUCUGATT against Ppp4r4 -1.58

z-score, active:
GGAACUGCUAAUCAACCAUTT against Zmynd10 -2.14, ACCUUUGUCCUUUUGUUGUTT against Defb15 2.01, GGACACAGAUAGAAAUACUTT against Glo1 2.73, GGCUUUAGGUAGUAGUCUCTT against Kansl2 -2.9, GGGCCACAGCUUAAUACUGTT against Ptov1 3.28, GGAAGUGCUGAAGGUGUACTT against Spire2 2.38, GGUAAACGAUGUACAGUUGTT against Notch2 2.6, GGGAAAUUUCUCUACAUCUTT against Npas1 2.2, GUCAGAUCUCAGAAUCAUGTT against Ercc6l2 -2.27, GGAUCAAUGGUGUCUUUGUTT against Pdzk1 -2.2
